Data as given in PubChem BioAssay AID1259254 (NCATS, 2017)
Purpose: 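Genome-wide screen for genes that prevent DNA re-replication in cancer cells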 (primary screen). Cell system: human HCT116 colorectal cancer cells. Knock-down reagent: single siRNA against human genes. Timing: 3 days. Read-out: 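Nuclei stained with Hoechst and imaged; cell-cycle phase assigned by DNA content; G2 share scaled per plate, non-targeting siRNA 0%, GMNN siRNA 100%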. Reading the numbers: G2 robust z-score and G2 cells, % of GMNN control: higher = more G2 cells, more excess DNA replication; raw share of cells in G2: higher = larger share of cells with G2 DNA content. Hit rule: 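Active siRNAs have a G2 robust z of 5 or more median absolute deviations over the median, which in these data means about 38% or higher of GMNN control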.
The whole screen tested about 59,000 reagents; below is an unselected part. In the full data, about 1,550 (2.6%) got an active call. 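G2 share is only a proxy for re-replication; each gene was hit by three separate siRNAs, and active genes were retested.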 The raw values are shown without normalisation. A number with no mark means an inactive call. The numbers tell different reagents against one gene apart. The record does not give: the amount of reagent.

The opening 4 entries, ahead of the listing:
no.	gene	reagent no.	G2 robust z-score	G2 cells, % of GMNN control	raw share of cells in G2 (%)
1	RPL6P1	1	-0.683	-1.84	2.91
2	RPL6P1	2	1.22	11.6	7.8
3	RPL6P1	3	-0.422	0	3.12
4	TTC31	1	-1.11	-4.87	2.46

The listing, from the first entry:
no.	gene	reagent no.	G2 robust z-score	G2 cells, % of GMNN control	raw share of cells in G2 (%)
1	RPL6P1	1	-0.683	-1.84	2.91
2	RPL6P1	2	1.22	11.6	7.8
3	RPL6P1	3	-0.422	0	3.12
4	TTC31	1	-1.11	-4.87	2.46
5	TTC31	2	2.79	22.6	14.7
6	TTC31	3	-0.617	-1.38	2.33
7	PSAT1	1	-1.54	-7.87	1.41
8	PSAT1	2	-0.0193	2.83	5.13
9	PSAT1	3	1.16	11.1	11.2
10	FITM1	1	0.39	5.71	5.65
11	FITM1	2	0.949	9.64	6.19
12	FITM1	3	-0.436	-0.103	2.73
13	PCDH8	1	-0.801	-2.67	2.29
14	PCDH8	2	-0.139	1.99	5.96
15	PCDH8	3	-0.6	-1.26	4.24
16	SLC35H1	1	0.595	7.15	6.89
17	SLC35H1	2	3.81	29.8	19.5
18	SLC35H1	3	2.38	19.7	11.4
19	BBOF1	1	-0.721	-2.11	1.8
20	BBOF1	2	-0.469	-0.33	4.31
21	BBOF1	3	0.446	6.1	6.97
22	CENPF	1	0.577	7.03	8.6
23	CENPF	2	-0.681	-1.82	3.42
24	CENPF	3	-0.0444	2.65	4.56
25	BABAM2	1	0.272	4.88	7.54
26	BABAM2	2	0.815	8.7	7.57
27	BABAM2	3	-0.436	-0.0979	3.37
28	PRXL2A	1	-0.514	-0.647	3.89
29	PRXL2A	2	0.0742	3.49	4.49
30	PRXL2A	3	-0.458	-0.256	2.33
31	C11orf58	1	-1.13	-4.96	3.04
32	C11orf58	2	-0.68	-1.82	3.38
33	C11orf58	3	-0.473	-0.361	3.04
34	POP1	1	-0.348	0.52	5.19
35	POP1	2	2.43	20.1	12.4
36	POP1	3	5.39 (active)	40.9	18.5
37	PSMD6	1	0.0425	3.27	6.44
38	PSMD6	2	1.38	12.7	9.89
39	PSMD6	3	-0.579	-1.1	2.82
40	NAMPT	1	-0.547	-0.882	4.87
41	NAMPT	2	-0.269	1.08	5.19
42	NAMPT	3	0.783	8.48	6.09
43	STX12	1	-0.281	0.989	3.14
44	STX12	2	-0.823	-2.83	4.63
45	STX12	3	0.271	4.88	5.16
46	ZNF563	1	3.82	29.8	13.5
47	ZNF563	2	-0.818	-2.79	2.13
48	ZNF563	3	0.828	8.8	6.61
49	MAJIN	1	-0.663	-1.7	3.02
50	MAJIN	2	-0.0102	2.9	4.16
51	MAJIN	3	-1.24	-5.78	1.51
52	OR8J3	1	2.3	19.1	12.4
53	OR8J3	2	1.69	14.9	10.8
54	OR8J3	3	-1.06	-4.48	1.15
55	PPM1H	1	-0.326	0.675	4.61
56	PPM1H	2	1.14	11	9.72
57	PPM1H	3	-0.586	-1.15	2.66
58	KNCN	1	-0.559	-0.962	3.51
59	KNCN	2	-0.231	1.34	3.33
60	KNCN	3	-0.573	-1.06	2.7
61	ZNF268	1	1.09	10.7	7.07
62	ZNF268	2	0.831	8.82	9.91
63	ZNF268	3	-0.97	-3.86	1.72
64	KLHDC9	1	0.127	3.86	5.63
65	KLHDC9	2	-0.268	1.08	3.45
66	KLHDC9	3	-0.296	0.887	2.9
67	PIGP	1	0.241	4.66	5.63
68	PIGP	2	0.257	4.77	6.35
69	PIGP	3	0.342	5.37	4.95
